# Results as given in PubChem BioAssay AID2099 (Broad Institute, 2009).
# Amino acid sequences for entries named in this document (tags omitted). Residues count along the entry.
# UniProt Q9H3R0, 1-420 limits assumed: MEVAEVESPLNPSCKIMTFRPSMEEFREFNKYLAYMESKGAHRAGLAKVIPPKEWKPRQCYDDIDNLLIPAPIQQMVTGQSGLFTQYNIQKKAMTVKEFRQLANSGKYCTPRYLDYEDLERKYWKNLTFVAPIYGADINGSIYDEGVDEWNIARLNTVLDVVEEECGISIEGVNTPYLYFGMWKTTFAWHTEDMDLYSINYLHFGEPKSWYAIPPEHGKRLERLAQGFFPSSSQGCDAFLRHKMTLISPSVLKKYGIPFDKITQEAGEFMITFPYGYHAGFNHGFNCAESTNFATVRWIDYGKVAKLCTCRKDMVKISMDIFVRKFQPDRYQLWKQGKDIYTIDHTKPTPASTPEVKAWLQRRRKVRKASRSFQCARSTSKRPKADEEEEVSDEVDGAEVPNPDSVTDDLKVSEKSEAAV
# Several values for one entry are separate records, joined by “and”; a condition that tells them apart may be missing. Identical values can stand only once. Screen size: about 330,000 compounds; about 230 (0.07%) were called active. This list was built around the results that the source calls inconclusive (neither active nor inactive); the mix of calls is not that of the screen.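 The calls were made as follows: active = more than half of a compound's replicate wells show inhibition beyond 50%, single wells judged on their own value; inconclusive = some, but no more than half, of replicates pass 50% inhibition; inactive = no replicate passes 50% inhibition.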
# Molecular target: Lysine-specific demethylase 4C (Homo sapiens) (UniProt Q9H3R0)
# Experiment: inhibitors of GASC-1 histone demethylase, primary screen, biochemical, fluorescence, DELFIA europium (AID 2099);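 also: signal counts dimethyl H3K9 product captured on neutravidin plate; 0% = median of DMSO wells and 100% = 0.3 times that DMSO median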
# Conditions: GST-JMJD2C(1-420) H3K9me3 demethylation, at 2.35 µM, active compounds read high
row,SMILES,inhibition
1,Cc1[nH]c2ccccc2c1-c1nc(N)sc1C,inactive: 1.68%
2,CCN(CC(=O)Nc1ccc(NC(C)=O)cc1)C(=O)c1cccc(S(=O)(=O)N2CCCC2)c1,inconclusive: -141%
3,CC(=O)Nc1nc(COc2ccc3ccccc3c2)cs1,inactive: 8.54%
4,COCc1nc2ccccc2n1CCc1ccccc1,inactive: 16.9%
5,Fc1ccc(C(c2nnnn2Cc2cccs2)N2CCN(C3CCCCC3)CC2)cc1 (centres undefined),inconclusive: -51%
6,Cc1oc2cc(O)ccc2c(=O)c1-c1ccccc1,inconclusive: -50.2%
7,COc1ccc(CCNS(=O)(=O)c2cc3c4c(c2)CCN4C(=O)CC3)cc1,inconclusive: -159%
8,CCc1cc(=O)oc2cc(C)cc(OC(C)C(=O)NCC(O)c3ccccc3)c12 (centres undefined),inconclusive: -74.3%
9,COc1cc(/C=C2/C(=N)N3C(=NC2=O)SN=C3S(C)(=O)=O)ccc1OS(=O)(=O)c1ccccc1,inactive: 4.36%
10,Cc1ccc(NC(=O)CCCNC(=O)c2ccc(Cl)cc2)c(O)c1,inconclusive: -58.4%
11,O=C(CSc1nnc(CNC(=O)c2ccccc2F)o1)NCCc1ccccc1,active: 108%
12,O=C(c1ccccc1)C1C(=O)c2ccccc2C1=O,inconclusive: -94.8%
13,Cc1ccccc1NS(=O)(=O)c1ccc(C(=O)N2CCCC(C(F)(F)F)C2)cc1 (centres undefined),inconclusive: -169%
14,CCC(CC)C(=O)NCCc1ccc(OC)cc1,inconclusive: -60.8%
15,CNc1oc(-c2ccc(Cl)cc2)nc1P(=O)(c1ccccc1)c1ccccc1,inconclusive: -200%
16,C=CC[n+]1c(-c2ccc(OC)c(OC)c2)csc1NNC(=O)Nc1ccccc1,inconclusive: -141%
17,CCC(CC)Nc1ccc(C(CC(N)=O)NC(=O)Cc2cccc3ccccc23)cc1[N+](=O)[O-] (centres undefined),inactive: -4.65%
18,C=C1C(=O)[C@@]23[C@H](O)C[C@@H]4C(C)(C)CC[C@H](O)[C@]4(C)[C@@H]2C[C@H](O)[C@@H]1[C@H]3O,inactive: 7.09%
19,Cc1cccc(NC(=S)N(C)C2CCCCC2)c1,inconclusive: -66.4%
20,CC1CN(c2ccc(Oc3ccccc3)cc2)c2nc3c(c(=O)[nH]c(=O)n3C)n2C1 (centres undefined),inconclusive: -56.8%
21,Cc1ccc(S(=O)(=O)N(C)C)cc1NC(=O)C1CCCCC1,inactive: -28.5%

row,SMILES,inhibition
1,C[C@H]1O[C@@H](O[C@H]2[C@@H](O)C[C@H](O[C@H]3[C@@H](O)C[C@H](O[C@H]4CC[C@@]5(C)[C@H](CC[C@@H]6[C@@H]5C[C@@H](O)[C@]5(C)[C@@H](C7=CC(=O)OC7)CC[C@]65O)C4)O[C@@H]3C)O[C@@H]2C)C[C@H](O)[C@@H]1O,inconclusive: -65%
2,CCCCN(C(=O)/C=C/c1ccc(OC)cc1)C1CCS(=O)(=O)C1 (centres undefined),inconclusive: -139%
3,COc1ccc(C)cc1NC(=O)CSc1nnc(COc2ccc(C)cc2)n1Cc1ccco1,inactive: 9.11%
4,O=c1c2[nH]cnc2n(-c2ccc(F)cc2)c(=O)n1Cc1ccccc1,inconclusive: -64.4%
5,COC/C=C/C1=CC2=CC(=O)C(C)(OC(=O)c3cnc4ccccc4n3)C(=O)C2=CN1Cc1ccccc1 (centres undefined),inactive: 9.59%
6,COc1ccc(F)cc1S(=O)(=O)N1CCCN(S(=O)(=O)c2cc(F)ccc2OC)CC1,inconclusive: -56.4%
7,COc1ccc(S(=O)(=O)N2CCCCC2)cc1NC(=O)C1CCCO1 (centres undefined),inconclusive: -52%
8,O=C(Nc1nc2ccccc2s1)C1CC(=O)N(c2ccc(Br)cc2)C1 (centres undefined),inconclusive: -53.4%
9,COc1ccc(C(=O)NCC(c2cccs2)N2CCc3ccccc32)cc1OC (centres undefined),inconclusive: -204%
10,O=C(CNC(=O)c1ccccc1O)N/N=C/c1cc(Br)ccc1OC(=O)/C=C/c1ccco1,active: 53.7%
11,COc1cc(SC)ccc1C(=O)OCC(=O)NC(=O)NC(C)C,inactive: 1.26%
12,O=C1CCC(=O)N1c1nc2nc(-c3ccccc3)cc(-c3ccccc3)n2n1,inconclusive: -75.5%
13,Cc1ccc(C(=O)Cc2nc3ccccc3[nH]2)cc1,inactive: -2.21%
14,Cc1cc(N=Nc2ccc(Cl)cc2)cc(CN2CCOCC2)c1O,inconclusive: -58.4%
15,O=C(COC(=O)c1ccc(Br)o1)NCCc1ccccc1,inactive: 7.65%
16,COc1ccc(Nc2ncc(C(=O)N3CCN(c4ccc(F)cc4)CC3)c3ccccc23)cc1,inconclusive: -58.9%
17,COc1ccc(/C=C2\SC(=O)N(CC(=O)NC3CCS(=O)(=O)C3)C2=O)cc1 (centres undefined),inconclusive: -129%
18,CCOC(=O)C1=C(C)OC2(O)c3ccccc3C(=O)C12O (centres undefined),inconclusive: -122%
19,CC(Sc1nnnn1C)C(=O)Nc1ccc2c(c1)OCCO2 (centres undefined),inconclusive: -75.5%
20,O=C(O)CCn1nnc(-c2ccccc2)n1,inactive: -8.54%
21,O=C(CCC(=O)NCCO)NCCO,inactive: -1.69%

row,SMILES,inhibition
1,CC(NC(=O)Nc1ccc(F)cc1)c1ccc2c(c1)OCO2 (centres undefined),inactive: 8.9%
2,COCCCn1c(-c2ccsc2)nc2c1c(=O)[nH]c(=O)n2Cc1ccccc1,inconclusive: -57.2%
3,O=[N+]([O-])c1ccc(-c2ccc(S(=O)(=O)N3CCOCC3)cc2)cc1,inconclusive: -73.7%
4,Oc1c(Cl)cc(Cl)c(Cl)c1Cc1c(O)c(Cl)cc(Cl)c1Cl,inconclusive: -41%
5,CCCn1c(N)c(N(CCOC)C(=O)c2cccc(S(=O)(=O)N3CCCc4ccccc43)c2)c(=O)[nH]c1=O,inconclusive: -108%
6,CCN(CC)c1ccc(NC(=O)c2cccc(C)c2OC)c(C)c1,inactive: -0.504%
7,COc1ccccc1C(=O)Nc1ccc2c(c1)CCCN2C(=O)c1cccs1,inconclusive: -52%
8,Cc1ccccc1N=C/C=C1/C=C(c2ccccc2)OC(C)(C)O1,inactive: -3.84%
9,O=C(NNC(=O)c1ccc(-c2ccccc2)cc1)Nc1ccccc1,inconclusive: -38%
10,C=C(C)C(=O)Nc1cccc(C2=NOC3(C2)C[C@@H](C(N)=O)N(C(=O)CCCCC)C3)c1 (some centres undefined),inactive: -16.5%
11,Oc1ccc(NC(=S)Nc2ccccc2)cc1,inactive: -0.0689% and inactive: -0.465%
12,O=C(NC1CCOc2ccccc21)C1CCCC1 (centres undefined),inconclusive: -76.8%
13,Cc1c(NC(=O)CN(c2ccc(F)cc2)S(=O)(=O)c2ccccc2)c(=O)n(-c2ccccc2)n1C,inconclusive: -51.2%
14,COC(=O)c1ccc(C(=O)OC)c(NC(=O)CN(c2ccc3c(c2)OCO3)S(C)(=O)=O)c1,inconclusive: -30.8%
15,Cc1cc(=O)oc2c(C)c(OC(C)C(=O)NC(Cc3c[nH]c4ccc(O)cc34)C(=O)O)ccc12 (centres undefined),inconclusive: -59.4%
16,COc1ccccc1CCNC(=O)Nc1cccc([N+](=O)[O-])c1,inactive: 1.53%
17,CCOc1ccc(C(=O)NCC(c2ccco2)N2CCOCC2)cc1 (centres undefined),inconclusive: -149%
18,COc1ccnc(Oc2ccc(C)cc2)c1C#N,inconclusive: -81.7%
19,Cc1cccc2cc(C(c3nnnn3Cc3ccccc3)N3CCN(c4ccccc4)CC3)c(=O)[nH]c12 (centres undefined),inactive: -0.697% and inactive: -26%
20,CC(C)(C)c1ccc(SCCc2cccnc2)cc1,inconclusive: -27%
21,Cc1nc(-c2ccc(S(=O)(=O)N3CCN(C4c5ccccc5-c5ccccc54)CC3)s2)cs1,inconclusive: -54.1%

row,SMILES,inhibition
1,CC(=O)Nc1ccc(NC(=O)C(NS(=O)(=O)c2cccc3nsnc23)C(C)C)cc1 (centres undefined),inconclusive: -125%
2,C=CC[C@H](CC(=O)NCCO)C(=O)N[C@@H](COC(=O)[C@H](CC=C)CC(=O)OC(C)(C)C)Cc1ccccc1,inactive: -0.569%
3,Cn1c2c(c(=O)n(C)c1=O)CN(CCCN1CCOCC1)CN2,active: 53.4%
4,CCC(C)Sc1ccc([C@H]2N[C@@](Cc3ccccc3)(C(=O)OC)[C@H]3C(=O)N(C)C(=O)[C@@H]23)cc1 (some centres undefined),inconclusive: -288%
5,COc1ccc(CCNC(=O)C2CCCN2C(=O)Nc2ccccc2)cc1OC (centres undefined),inconclusive: -78.8%
6,CC(NC(=O)c1cn(C)c2ccc(S(=O)(=O)N3CCCC3)cc2c1=O)c1ccc2c(c1)OCCO2 (centres undefined),inconclusive: -128%
7,COc1ccc(N2C(=NC(=O)C3CCCCC3)SC3CS(=O)(=O)CC32)cc1OC (centres undefined),inconclusive: -79.8%
8,COc1ccccc1N1CCN(S(=O)(=O)CCNC(=O)CC2CCCCC2)CC1,inconclusive: -31.4%
9,O=C1Nc2ccccc2C1(O)Cc1ccncc1 (centres undefined),inconclusive: -52.5%
10,Cn1c(CNC(=O)CNC(=O)c2ccccc2)cc(=O)n(C)c1=O,inconclusive: -86.8%
11,CC(C)c1ccc(/C=N\NC(=O)c2ccc(Cn3cccn3)o2)cc1,inactive: 4.47%
12,Cc1n[nH]c(=O)n1-c1cccc(C(F)(F)F)c1,inconclusive: -95.2%
13,Cc1ccc(NC(=O)CCCc2nc3ccccc3c(=O)[nH]2)c(Cl)c1,inactive: 0.27%
14,c1ccc2c(-c3nc(-c4ccncc4)no3)cccc2c1,inconclusive: -82.5%
15,CNC[C@H](O)c1ccc(O)c(O)c1,inconclusive: -64.8%
16,Cc1cccc(-n2c(N)cc(=O)nc2SCC(=O)Nc2nnc(C)s2)c1,inconclusive: -274%
17,Cc1nc2nc(-c3ccco3)[nH]n2c(=O)c1C,inactive: 4.33%
18,COCCNC(=S)N1CCc2cc(OC)c(OC)cc2C1COc1ccc(F)cc1 (centres undefined),inactive: -3.51%
19,COc1ccccc1N=Cc1c(C)c(C#N)c2[nH]c3ccccc3n2c1=O,active: 58.5%
20,CCCn1nnnc1SCC(=O)NCc1ccc2c(c1)OCO2,active: 62.3%
21,Cc1ccc(CN2C(=O)c3ccccc3NC2c2ccccn2)cc1 (centres undefined),inactive: 6.57%
